Experimental data taken from patent publication US3932633A, “Novel o-triazenobenzamides, in treating aggressive behavior” (Uniroyal Inc., priority 1974, dated 1976).
Entries after “also recorded” stand apart in the source; their conditions may differ.

Columns and labels:
[1] = tested on: isolation-induced fighting in mice; experiment: Isolated fighting mouse (IFM) test / isolated mouse aggression; assay type: in vivo; conditions: dose blocking aggression correlated with dose inducing neurotoxicity
Description: *IFM - Isolated fighting mouse test at a dose of 30 mg/kg
intraperitoneally; those compounds which protected at least 40% of the
Two models of aggression are used in the primary screening for neuroleptics, (1) isolation-induced fighting in mice (IFM), and (2) aggression induced in rats by destruction of the septal area (septal rat). Compounds are first submitted, however, to the neuropharmacological profile, a standard procedure (see, e.g., Samuel Irwin, Science, 136, 123 [1962]) employed in screening a compound to determine its usefulness as a central nervous system active compound. Those agents which cause depression over a wide dose range are then submitted to the first anti-aggression screen, the isolation-induced fighting mouse assay.
(§1) The compound of Example 6 was compared with chlorpromazine and chlordiazepoxide for its anti-aggressive activity. Three models of experimentally-induced aggression in rodents were studied (R. D. Sofia, Life Science, 8: 705, 1969).

[2] = tested on: electroshock-induced fighting in mice; experiment: Electroshock-induced fighting in mice; assay type: in vivo, mouse; conditions: i.p. administration
Description: as §1

Cc1nc(NN=Nc2ccccc2C(N)=O)sc1C(=O)NCc1ccccc1 [Example 6, 2-[3-(4-methyl-5-(N-benzyl-carbamoyl)-2-thiazolyl)-2(or 1)-triazeno]-benzamide]
selectivity in blocking aggression versus chlordiazepoxide [1]: one thousand times | selectivity in blocking aggression versus chlorpromazine [1]: more than two thousand times; also recorded: greater than two thousand times

CNC1=Nc2ccc(Cl)cc2C(c2ccccc2)=[N+]([O-])C1 [Chlordiazepoxide, chlordiazepoxide]
NTD50/ED50, Electroshock-Induced Fighting in Mice ([2]; listed as chlordiazepoxide): less than one

CN(C)CCCN1c2ccccc2Sc2ccc(Cl)cc21 [Chlorpromazine, chlorpromazine]
NTD50/ED50, Electroshock-Induced Fighting in Mice ([2]; listed as chlorpromazine): less than one
